From article PMC11066113
No constants are given. Whether binding was seen depends on the method and setting. In cells and extracts the contact can be indirect. For part of these data: Binding can be weak; no strength is given.

By UniProt entry, the sequences of proteins in these tests, tags left out. Where a name states a change or a piece, a line headed by the entry shows the natural chain unless it says otherwise. Residues count along the entry.
UniProt O00206, residues 24-631: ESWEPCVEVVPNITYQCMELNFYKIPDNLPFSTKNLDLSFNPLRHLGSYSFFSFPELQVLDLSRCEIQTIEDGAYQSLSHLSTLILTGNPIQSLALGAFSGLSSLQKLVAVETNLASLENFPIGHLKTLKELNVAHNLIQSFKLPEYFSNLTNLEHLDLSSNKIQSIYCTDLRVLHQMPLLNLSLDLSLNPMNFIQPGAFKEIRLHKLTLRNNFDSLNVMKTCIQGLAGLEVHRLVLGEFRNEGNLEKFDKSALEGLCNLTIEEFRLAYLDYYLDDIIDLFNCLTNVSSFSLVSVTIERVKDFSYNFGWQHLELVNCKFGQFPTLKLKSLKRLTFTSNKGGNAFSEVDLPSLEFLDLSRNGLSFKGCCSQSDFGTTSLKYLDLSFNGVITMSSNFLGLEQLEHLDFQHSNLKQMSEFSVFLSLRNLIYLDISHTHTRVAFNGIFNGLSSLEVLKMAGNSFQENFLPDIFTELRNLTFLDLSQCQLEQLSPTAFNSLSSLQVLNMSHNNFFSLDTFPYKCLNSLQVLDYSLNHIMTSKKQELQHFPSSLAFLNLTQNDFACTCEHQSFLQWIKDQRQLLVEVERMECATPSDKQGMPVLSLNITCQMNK
UniProt Q6R5P0, residues 31-721: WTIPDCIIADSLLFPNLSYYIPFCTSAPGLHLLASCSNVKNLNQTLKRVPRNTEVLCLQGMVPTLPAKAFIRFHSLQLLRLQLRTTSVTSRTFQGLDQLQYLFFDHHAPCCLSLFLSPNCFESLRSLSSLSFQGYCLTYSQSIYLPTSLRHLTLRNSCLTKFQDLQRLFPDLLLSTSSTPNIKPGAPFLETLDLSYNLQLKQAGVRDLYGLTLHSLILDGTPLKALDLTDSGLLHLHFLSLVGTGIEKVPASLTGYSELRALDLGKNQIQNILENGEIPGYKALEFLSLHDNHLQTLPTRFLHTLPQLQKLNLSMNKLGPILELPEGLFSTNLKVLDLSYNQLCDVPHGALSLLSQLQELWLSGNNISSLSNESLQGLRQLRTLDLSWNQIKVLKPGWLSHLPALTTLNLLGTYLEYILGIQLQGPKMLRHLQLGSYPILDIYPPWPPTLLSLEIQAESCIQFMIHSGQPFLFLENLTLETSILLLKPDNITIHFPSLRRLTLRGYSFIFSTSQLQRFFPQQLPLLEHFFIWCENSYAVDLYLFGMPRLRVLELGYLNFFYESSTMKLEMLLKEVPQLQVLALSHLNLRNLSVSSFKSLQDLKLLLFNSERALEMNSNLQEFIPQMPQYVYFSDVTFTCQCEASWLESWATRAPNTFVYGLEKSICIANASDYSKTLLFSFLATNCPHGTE
UniProt Q9JLF7, residues 27-641: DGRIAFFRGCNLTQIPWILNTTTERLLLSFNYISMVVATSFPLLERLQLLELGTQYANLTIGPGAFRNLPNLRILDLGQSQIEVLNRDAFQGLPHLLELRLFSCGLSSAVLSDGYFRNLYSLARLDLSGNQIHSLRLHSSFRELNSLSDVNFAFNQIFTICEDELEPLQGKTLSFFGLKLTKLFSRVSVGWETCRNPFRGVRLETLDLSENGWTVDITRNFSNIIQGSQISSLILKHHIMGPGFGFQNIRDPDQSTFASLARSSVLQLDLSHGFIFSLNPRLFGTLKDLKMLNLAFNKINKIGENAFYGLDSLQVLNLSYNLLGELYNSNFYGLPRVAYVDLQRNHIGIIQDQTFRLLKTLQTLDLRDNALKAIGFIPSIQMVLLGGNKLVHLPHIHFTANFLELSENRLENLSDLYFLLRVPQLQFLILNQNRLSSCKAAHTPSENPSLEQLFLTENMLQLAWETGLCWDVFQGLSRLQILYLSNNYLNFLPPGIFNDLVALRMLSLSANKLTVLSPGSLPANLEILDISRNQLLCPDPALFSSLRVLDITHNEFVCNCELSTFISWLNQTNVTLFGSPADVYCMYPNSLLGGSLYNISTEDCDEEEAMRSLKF
UniProt Q172F2: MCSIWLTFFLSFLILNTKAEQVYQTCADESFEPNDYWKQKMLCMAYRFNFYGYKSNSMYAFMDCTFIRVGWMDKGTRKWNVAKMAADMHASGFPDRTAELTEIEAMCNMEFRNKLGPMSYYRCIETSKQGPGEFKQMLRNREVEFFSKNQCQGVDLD

Key:
Assay in all cases: co-IP; lysate of HEK293T cells transfected with a Myc-tagged TLR ECD incubated with 80 ng purified V5-tagged AaNRP at 4 °C, precipitated with anti-Myc tag antibody (magnetic beads), five washes with IP lysis buffer, blots for V5 and Myc; only the binder purified
[1] = molecular target: human TLR4 extracellular domain (human) (UniProt O00206)
[2] = molecular target: T1, human TLR6 extracellular domain (human) (UniProt Q9Y2C9)
T1 sequence: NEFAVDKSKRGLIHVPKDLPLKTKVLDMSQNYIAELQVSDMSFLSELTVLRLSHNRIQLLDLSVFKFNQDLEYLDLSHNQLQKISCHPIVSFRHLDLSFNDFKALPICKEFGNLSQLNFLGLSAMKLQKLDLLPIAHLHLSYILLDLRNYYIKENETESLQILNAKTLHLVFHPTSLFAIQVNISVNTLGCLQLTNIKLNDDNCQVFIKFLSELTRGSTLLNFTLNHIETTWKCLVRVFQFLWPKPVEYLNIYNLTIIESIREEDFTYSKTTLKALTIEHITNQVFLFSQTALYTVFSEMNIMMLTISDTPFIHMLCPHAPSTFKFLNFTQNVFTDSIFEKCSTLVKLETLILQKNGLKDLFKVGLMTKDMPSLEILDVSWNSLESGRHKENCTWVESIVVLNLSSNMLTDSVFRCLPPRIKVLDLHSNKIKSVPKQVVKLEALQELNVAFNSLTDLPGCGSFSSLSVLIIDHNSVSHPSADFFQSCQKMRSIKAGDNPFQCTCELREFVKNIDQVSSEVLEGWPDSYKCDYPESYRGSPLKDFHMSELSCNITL

[3] = molecular target: T2, murine Toll-like receptor 1 extracellular domain (mouse) (UniProt Q9EPQ1)
T2 sequence: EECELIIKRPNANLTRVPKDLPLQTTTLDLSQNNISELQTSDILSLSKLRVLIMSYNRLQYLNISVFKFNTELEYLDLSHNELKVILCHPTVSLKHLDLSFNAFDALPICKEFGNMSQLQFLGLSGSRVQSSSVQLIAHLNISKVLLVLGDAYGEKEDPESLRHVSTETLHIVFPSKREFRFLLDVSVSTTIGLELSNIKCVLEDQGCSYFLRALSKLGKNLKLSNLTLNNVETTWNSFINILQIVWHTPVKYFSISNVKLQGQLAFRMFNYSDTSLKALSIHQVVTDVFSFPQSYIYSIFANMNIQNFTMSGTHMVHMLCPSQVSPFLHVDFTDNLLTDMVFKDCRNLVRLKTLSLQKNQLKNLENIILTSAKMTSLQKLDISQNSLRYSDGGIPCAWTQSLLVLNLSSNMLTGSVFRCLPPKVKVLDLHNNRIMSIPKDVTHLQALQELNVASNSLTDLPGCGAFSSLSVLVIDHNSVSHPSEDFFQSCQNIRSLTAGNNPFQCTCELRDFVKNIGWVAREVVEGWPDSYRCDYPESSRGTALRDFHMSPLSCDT

[4] = molecular target: murine Toll-like receptor 11 extracellular domain (mouse) (UniProt Q6R5P0)
[5] = molecular target: T3, murine Toll-like receptor 2 extracellular domain (mouse) (UniProt Q9QUN7)
T3 sequence: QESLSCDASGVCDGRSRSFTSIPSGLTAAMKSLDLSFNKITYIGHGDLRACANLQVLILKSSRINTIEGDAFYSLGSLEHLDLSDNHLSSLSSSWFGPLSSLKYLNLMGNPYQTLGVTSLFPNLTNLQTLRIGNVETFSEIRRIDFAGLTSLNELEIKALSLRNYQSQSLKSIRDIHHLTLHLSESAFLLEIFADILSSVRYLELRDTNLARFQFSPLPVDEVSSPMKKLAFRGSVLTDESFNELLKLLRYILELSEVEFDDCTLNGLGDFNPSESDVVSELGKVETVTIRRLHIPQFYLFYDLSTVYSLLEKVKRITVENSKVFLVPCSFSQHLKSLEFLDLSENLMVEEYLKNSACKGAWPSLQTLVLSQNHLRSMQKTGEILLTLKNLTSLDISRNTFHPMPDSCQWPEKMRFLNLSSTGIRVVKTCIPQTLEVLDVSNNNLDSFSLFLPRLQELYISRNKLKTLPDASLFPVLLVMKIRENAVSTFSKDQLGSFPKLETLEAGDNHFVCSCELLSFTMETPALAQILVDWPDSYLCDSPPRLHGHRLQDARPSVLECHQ

[6] = molecular target: murine Toll-like receptor 5 extracellular domain (mouse) (UniProt Q9JLF7)

“A. aegypti Neutrophil Recruitment Protein (AaNRP) (from UniProt Q172F2)” was tested, and the binding [1] was “binds”, the binding [2] was “no binding (tested: 80 ng of purified AaNRP)” and the binding [3] was “binds”. The binding [4] was “no binding (tested: 80 ng of purified AaNRP)”, the binding [5] was “no binding (tested: 80 ng of purified AaNRP)” and the binding [6] was “no binding (tested: 80 ng of purified AaNRP)”.
